Measured values from publication PMC3600747.
No constants are given. Whether binding was seen depends on the method and setting. Binding seen in cells or lysates may run through a third protein. Some binding calls cover weakened binding; strength is not graded here.

Biological target: T1, FOG1 (friend of GATA1) (UniProt O35615)
T1 sequence: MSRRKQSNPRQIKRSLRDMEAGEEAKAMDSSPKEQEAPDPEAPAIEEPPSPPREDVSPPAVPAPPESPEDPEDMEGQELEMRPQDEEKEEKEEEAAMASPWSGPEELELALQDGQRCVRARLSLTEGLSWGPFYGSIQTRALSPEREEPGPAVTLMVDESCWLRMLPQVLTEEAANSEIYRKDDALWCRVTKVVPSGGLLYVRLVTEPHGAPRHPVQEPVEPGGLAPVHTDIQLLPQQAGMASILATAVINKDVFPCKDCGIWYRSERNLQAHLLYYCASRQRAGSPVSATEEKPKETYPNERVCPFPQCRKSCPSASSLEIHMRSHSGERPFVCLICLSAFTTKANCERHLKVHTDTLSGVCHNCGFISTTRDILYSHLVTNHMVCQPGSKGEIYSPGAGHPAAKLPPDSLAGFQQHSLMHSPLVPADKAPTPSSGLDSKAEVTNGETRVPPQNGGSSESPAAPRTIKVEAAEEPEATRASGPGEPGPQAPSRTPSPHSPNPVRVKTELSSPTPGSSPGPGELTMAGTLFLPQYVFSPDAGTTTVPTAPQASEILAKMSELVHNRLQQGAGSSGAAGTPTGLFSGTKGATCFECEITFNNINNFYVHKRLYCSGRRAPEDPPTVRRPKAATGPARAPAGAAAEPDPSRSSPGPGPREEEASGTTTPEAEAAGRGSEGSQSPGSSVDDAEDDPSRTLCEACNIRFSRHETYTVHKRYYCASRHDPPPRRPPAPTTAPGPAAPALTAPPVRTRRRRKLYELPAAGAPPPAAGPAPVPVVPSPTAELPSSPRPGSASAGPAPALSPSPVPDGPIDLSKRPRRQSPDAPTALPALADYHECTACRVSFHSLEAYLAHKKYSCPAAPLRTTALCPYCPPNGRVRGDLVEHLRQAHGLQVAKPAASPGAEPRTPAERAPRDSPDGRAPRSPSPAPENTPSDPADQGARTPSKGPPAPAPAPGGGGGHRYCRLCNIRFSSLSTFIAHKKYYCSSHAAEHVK
Assay: co-IP; Ldb1 and FOG1; cells and constructs not told

B1: Ldb1 (as in the co-immunoprecipitation with FOG1) (protein, UniProt P70662 1-411)
chain: MSVGCACPGCSSKSFKLYSPKEPPNGNAFPPFHPGTMLDRDVGPTPMYPPTYLEPGIGRHTPYGNQTDYRIFELNKRLQNWTEECDNLWWDAFTTEFFEDDAMLTITFCLEDGPKRYTIGRTLIPRYFRSIFEGGATELYYVLKHPKEAFHSNFVSLDCDQGSMVTQHGKPMFTQVCVEGRLYLEFMFDDMMRIKTWHFSIRQHRELIPRSILAMHAQDPQMLDQLSKNITRCGLSNSTLNYLRLCVILEPMQELMSRHKTYSLSPRDCLKTCLFQKWQRMVAPPAEPARQQPSKRRKRKMSGGSTMSSGGGNTNNSNSKKKSPASTFALSSQVPDVMVVGEPTLMGGEFGDEDERLITRLENTQFDAANGIDDEDSFNNSPALGANSPWNSKPPSSQESKSENPTSQASQ
  binding: binds
